Reference: paper doi:10.1101/830802
Results are given in words; binding and its absence hold for the method and conditions named. Binding seen in cells or lysates may run through a third protein. Some entries that bind do so weakly or less than the wild type. Where a sequence is shown, tags or fusion partners need not be part of it.

Tests used:
Experiment in all cases: co-IP
[1] = biological target: T1, GFP-Auxilin Q791X (human) (UniProt O75061)
T1 sequence: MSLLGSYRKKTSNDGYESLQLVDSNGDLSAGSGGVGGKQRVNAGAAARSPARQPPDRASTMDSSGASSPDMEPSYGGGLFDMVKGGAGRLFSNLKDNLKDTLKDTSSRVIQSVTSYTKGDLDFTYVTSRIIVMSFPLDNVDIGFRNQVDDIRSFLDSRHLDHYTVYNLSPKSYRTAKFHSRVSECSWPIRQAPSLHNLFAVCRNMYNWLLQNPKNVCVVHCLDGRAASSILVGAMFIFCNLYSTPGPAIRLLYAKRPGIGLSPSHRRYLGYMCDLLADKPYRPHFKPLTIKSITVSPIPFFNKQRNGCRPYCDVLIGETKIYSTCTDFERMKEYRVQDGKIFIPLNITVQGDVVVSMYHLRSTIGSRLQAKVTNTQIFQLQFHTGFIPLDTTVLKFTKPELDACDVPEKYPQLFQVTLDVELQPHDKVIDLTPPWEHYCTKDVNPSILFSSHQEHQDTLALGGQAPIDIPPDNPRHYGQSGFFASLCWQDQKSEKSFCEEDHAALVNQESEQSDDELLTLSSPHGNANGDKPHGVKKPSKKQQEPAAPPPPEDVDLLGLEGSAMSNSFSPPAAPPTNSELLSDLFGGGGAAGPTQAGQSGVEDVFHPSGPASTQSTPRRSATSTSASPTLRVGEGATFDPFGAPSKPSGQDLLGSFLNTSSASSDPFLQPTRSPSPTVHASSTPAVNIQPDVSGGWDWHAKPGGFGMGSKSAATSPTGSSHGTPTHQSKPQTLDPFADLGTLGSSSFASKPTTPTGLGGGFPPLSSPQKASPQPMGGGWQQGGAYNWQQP

[2] = biological target: T2, GFP-Auxilin R927G (human) (UniProt O75061)
T2 sequence: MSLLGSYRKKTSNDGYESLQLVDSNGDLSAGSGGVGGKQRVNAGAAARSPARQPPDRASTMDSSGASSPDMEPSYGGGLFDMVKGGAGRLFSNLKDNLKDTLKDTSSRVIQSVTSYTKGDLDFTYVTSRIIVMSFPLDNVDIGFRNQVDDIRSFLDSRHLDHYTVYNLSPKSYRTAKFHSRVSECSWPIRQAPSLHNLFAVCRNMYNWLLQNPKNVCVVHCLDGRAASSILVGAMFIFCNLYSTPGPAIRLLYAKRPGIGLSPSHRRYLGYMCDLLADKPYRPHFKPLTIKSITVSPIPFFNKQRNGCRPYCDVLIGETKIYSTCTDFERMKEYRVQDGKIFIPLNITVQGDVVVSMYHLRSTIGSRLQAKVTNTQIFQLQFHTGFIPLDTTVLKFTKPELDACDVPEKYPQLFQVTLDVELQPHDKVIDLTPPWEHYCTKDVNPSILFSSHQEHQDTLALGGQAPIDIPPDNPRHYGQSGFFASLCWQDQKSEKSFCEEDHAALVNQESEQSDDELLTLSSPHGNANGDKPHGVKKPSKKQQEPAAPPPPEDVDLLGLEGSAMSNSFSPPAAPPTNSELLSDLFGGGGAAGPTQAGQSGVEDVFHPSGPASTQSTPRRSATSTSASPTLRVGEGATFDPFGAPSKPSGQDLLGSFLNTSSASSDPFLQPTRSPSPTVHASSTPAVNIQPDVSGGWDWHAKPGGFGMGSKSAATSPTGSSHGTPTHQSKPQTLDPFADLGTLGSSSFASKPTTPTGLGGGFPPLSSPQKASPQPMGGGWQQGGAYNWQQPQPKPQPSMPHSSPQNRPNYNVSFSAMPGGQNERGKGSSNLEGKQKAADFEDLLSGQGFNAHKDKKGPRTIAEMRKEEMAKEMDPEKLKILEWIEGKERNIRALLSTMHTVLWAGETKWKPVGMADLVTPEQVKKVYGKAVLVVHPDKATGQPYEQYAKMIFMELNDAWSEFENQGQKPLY

[3] = biological target: T3, GFP-Auxilin Q846X (human) (UniProt O75061)
T3 sequence: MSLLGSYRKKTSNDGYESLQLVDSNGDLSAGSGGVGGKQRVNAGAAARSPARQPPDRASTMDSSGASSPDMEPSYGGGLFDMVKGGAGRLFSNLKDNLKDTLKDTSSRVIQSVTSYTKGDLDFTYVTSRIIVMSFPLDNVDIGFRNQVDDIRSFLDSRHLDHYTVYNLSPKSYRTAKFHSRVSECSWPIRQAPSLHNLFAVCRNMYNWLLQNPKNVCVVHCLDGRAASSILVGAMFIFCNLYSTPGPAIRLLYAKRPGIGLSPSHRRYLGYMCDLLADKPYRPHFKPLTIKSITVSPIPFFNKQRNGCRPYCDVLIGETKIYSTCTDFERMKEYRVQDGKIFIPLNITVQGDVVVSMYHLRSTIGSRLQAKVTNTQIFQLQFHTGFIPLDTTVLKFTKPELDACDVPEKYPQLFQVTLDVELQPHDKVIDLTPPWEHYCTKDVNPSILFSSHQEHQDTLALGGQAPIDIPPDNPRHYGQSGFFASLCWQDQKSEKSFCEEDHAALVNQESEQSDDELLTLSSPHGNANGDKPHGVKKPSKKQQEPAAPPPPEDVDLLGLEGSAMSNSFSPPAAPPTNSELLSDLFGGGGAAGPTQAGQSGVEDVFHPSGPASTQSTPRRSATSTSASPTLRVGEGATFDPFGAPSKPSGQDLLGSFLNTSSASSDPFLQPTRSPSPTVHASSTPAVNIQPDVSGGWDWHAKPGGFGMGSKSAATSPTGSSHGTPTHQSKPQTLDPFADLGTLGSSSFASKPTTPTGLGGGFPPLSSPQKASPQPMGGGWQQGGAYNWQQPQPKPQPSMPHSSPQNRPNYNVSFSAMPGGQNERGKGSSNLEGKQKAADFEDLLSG

Measured: binding

B1: GGA3, endogenous in HEK293FT (protein, UniProt Q9NZ52 1-723)
chain: MAEAEGESLESWLNKATNPSNRQEDWEYIIGFCDQINKELEGPQIAVRLLAHKIQSPQEWEALQALTVLEACMKNCGRRFHNEVGKFRFLNELIKVVSPKYLGDRVSEKVKTKVIELLYSWTMALPEEAKIKDAYHMLKRQGIVQSDPPIPVDRTLIPSPPPRPKNPVFDDEEKSKLLAKLLKSKNPDDLQEANKLIKSMVKEDEARIQKVTKRLHTLEEVNNNVRLLSEMLLHYSQEDSSDGDRELMKELFDQCENKRRTLFKLASETEDNDNSLGDILQASDNLSRVINSYKTIIEGQVINGEVATLTLPDSEGNSQCSNQGTLIDLAELDTTNSLSSVLAPAPTPPSSGIPILPPPPQASGPPRSRSSSQAEATLGPSSTSNALSWLDEELLCLGLADPAPNVPPKESAGNSQWHLLQREQSDLDFFSPRPGTAACGASDAPLLQPSAPSSSSSQAPLPPPFPAPVVPASVPAPSAGSSLFSTGVAPALAPKVEPAVPGHHGLALGNSALHHLDALDQLLEEAKVTSGLVKPTTSPLIPTTTPARPLLPFSTGPGSPLFQPLSFQSQGSPPKGPELSLASIHVPLESIKPSSALPVTAYDKNGFRILFHFAKECPPGRPDVLVVVVSMLNTAPLPVKSIVLQAAVPKSMKVKLQPPSGTELSPFSPIQPPAAITQVMLLANPLKEKVRLRYKLTFALGEQLSTEVGEVDQFPPVEQWGNL
binds weakly: all assays above
